Experimental data reported in paper PMC10775985.
No constants are given. Whether binding was seen depends on the method and setting. Tags and fused reporters may be left off the sequences shown.

Biological target: ScCdc31-6His (Saccharomyces cerevisiae centrin Cdc31) (Saccharomyces cerevisiae) (UniProt P06704)
Assay: light microscopy of droplets in purified protein solutions; self-assembly into droplets; concentrated recombinant centrin (100-200 μM), 2 mM CaCl2 added, then 10 mM EDTA; 50 mM BisTris pH 7.1, 37°C; both purified

B1: ScCdc31-6His (Saccharomyces cerevisiae centrin Cdc31) (protein, UniProt P06704 1-161)
chain: MSKNRSSLQSGPLNSELLEEQKQEIYEAFSLFDMNNDGFLDYHELKVAMKALGFELPKREILDLIDEYDSEGRHLMKYDDFYIVMGEKILKRDPLDEIKRAFQLFDDDHTGKISIKNLRRVAKELGETLTDEELRAMIEEFDLDGDGEINENEFIAICTDS
**Q.** B1 was tested. Which binding did it give?
**A.** no binding (condition: with 10 mM EDTA)
